Drawing on publication PMC8317539, this text covers binding for 2 substances.

Chains of the proteins cited; added tags and fusions are not shown. Residues count along the entry.
UniProt P09758, residues 27-323: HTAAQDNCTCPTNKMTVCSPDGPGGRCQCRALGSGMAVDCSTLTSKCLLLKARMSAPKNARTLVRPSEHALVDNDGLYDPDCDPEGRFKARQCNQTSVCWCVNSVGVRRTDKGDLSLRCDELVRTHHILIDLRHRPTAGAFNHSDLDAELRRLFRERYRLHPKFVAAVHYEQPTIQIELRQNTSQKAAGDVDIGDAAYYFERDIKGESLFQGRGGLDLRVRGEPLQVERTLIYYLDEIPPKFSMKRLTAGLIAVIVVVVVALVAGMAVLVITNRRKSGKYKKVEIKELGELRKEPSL
UniProt P11717, residues 41-2491: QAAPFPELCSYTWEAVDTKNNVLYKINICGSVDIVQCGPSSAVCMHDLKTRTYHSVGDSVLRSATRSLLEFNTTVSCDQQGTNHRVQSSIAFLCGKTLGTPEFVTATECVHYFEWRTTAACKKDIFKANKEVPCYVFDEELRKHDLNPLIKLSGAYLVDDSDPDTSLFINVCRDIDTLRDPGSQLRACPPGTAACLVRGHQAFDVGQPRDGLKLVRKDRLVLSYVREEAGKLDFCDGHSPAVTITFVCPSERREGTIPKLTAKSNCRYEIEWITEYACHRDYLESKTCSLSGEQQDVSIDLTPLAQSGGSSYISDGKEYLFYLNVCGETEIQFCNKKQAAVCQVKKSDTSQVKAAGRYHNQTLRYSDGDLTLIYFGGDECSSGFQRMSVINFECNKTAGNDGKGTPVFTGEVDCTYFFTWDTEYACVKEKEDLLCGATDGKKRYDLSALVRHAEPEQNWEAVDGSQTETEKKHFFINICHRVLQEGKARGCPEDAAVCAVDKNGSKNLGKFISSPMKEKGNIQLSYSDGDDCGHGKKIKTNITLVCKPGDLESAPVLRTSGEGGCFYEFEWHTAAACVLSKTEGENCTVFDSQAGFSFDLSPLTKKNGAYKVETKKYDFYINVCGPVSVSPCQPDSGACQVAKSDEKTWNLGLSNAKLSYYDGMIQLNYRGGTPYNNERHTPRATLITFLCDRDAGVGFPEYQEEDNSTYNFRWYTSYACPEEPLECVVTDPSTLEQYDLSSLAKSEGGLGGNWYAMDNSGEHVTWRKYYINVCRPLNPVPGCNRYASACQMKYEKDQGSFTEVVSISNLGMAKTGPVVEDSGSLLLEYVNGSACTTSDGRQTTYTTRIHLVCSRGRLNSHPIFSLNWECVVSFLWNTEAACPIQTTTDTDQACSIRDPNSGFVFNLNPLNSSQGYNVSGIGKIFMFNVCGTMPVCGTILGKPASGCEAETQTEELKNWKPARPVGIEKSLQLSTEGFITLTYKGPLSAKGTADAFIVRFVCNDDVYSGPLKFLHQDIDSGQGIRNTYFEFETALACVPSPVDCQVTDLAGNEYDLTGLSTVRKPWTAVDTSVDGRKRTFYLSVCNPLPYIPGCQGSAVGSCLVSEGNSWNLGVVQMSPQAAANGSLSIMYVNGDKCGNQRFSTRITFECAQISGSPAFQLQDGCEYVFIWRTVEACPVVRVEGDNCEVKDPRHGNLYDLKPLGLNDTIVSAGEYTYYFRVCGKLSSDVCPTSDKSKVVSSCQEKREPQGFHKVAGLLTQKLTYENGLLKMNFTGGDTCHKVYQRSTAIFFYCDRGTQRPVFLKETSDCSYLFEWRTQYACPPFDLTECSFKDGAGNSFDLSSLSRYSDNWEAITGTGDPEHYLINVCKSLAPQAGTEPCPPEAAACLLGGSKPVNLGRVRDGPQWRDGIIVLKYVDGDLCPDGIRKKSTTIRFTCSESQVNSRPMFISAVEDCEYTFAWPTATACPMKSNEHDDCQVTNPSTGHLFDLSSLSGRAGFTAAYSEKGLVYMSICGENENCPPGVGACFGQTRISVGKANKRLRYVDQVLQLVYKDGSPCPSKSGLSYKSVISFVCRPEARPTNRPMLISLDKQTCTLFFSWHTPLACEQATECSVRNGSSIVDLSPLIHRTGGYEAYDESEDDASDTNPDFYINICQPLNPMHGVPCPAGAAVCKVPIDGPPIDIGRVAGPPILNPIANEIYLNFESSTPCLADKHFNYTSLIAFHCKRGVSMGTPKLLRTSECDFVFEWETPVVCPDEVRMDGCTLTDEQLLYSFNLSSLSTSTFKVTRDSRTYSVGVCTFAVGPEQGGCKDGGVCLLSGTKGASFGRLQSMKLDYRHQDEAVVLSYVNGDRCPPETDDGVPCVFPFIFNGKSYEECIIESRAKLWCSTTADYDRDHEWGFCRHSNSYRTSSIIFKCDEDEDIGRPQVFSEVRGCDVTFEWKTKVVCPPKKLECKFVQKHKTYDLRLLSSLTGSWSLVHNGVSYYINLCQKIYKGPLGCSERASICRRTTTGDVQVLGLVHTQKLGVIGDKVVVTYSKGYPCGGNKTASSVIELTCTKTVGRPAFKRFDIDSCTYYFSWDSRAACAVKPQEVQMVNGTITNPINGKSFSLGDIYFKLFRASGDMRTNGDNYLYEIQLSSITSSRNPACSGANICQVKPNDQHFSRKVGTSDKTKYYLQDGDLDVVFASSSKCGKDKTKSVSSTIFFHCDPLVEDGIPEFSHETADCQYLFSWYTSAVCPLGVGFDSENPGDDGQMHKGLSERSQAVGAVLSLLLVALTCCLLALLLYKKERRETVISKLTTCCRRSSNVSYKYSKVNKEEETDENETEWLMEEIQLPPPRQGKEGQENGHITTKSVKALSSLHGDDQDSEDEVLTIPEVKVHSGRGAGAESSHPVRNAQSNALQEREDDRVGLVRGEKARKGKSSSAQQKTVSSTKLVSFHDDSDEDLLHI

Results are given in words; binding and its absence hold for the method and conditions named. In cells and extracts the contact can be indirect. Some entries that bind do so weakly or less than the wild type.

Assay [1] addresses Trop2, endogenous in PC-9/GR cells (human (endogenous in PC-9/GR)) (UniProt P09758). Put plainly: co-IP; PC-9/GR cell lysates immunoprecipitated with anti-Trop2 antibody; IGF2R detected with anti-IGF2R antibody (the text calls it a pull-down assay).
For assay [2], the target named is Flag-IGF2R (insulin-like growth factor-2 receptor) (UniProt P11717). The experiment in a line: co-IP; 293T cells co-transfected with HA-Trop2 (or control HA-PCMV) and Flag-IGF2R (or control Flag-pcDNA3.1), 48 h, lysed in RIPA buffer; Dynabeads with anti-Flag antibody or control IgG; western blot.

As to “IGF2R, endogenous in PC-9/GR cells (from UniProt P11717 41-2491) (receptor)”, the binding entry in assay [1] is “binds”.

Take “HA-Trop2 (human trophoblast cell surface antigen 2) (from UniProt P09758 27-323)”: the binding entry in assay [2] was “binds”.
